Measured values taken from article PMC4745749.
These are yes or no findings as the source states them, for the method shown. In cells and extracts the contact can be indirect. Some binding calls cover weakened binding; strength is not graded here.

Sequences of proteins named here, by UniProt entry; tags and fusion partners are left off.
UniProt Q00987: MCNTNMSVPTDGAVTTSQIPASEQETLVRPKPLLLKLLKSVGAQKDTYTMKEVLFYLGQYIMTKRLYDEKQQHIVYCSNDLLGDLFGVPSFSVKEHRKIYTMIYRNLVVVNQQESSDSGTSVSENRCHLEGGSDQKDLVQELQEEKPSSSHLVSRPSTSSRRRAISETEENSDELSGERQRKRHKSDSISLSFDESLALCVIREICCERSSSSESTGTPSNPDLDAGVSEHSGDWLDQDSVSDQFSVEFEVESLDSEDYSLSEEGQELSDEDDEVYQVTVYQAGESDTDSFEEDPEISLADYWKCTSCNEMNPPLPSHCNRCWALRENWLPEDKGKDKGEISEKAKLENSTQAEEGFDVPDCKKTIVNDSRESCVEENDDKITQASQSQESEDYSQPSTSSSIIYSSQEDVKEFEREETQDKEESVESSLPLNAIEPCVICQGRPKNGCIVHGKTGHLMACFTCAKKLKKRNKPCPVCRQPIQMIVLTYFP
UniProt Q9Y294: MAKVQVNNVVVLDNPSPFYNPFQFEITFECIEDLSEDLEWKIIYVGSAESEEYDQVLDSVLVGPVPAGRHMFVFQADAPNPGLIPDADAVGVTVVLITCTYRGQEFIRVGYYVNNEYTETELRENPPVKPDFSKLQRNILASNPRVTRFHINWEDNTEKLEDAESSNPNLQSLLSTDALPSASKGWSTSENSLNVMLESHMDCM

Key:
[1] = target: MDM2 (human (endogenous in HL-7702)) (UniProt Q00987); test: co-IP; endogenous co-IP from HL-7702 lysate with an anti-MDM2 antibody; blots with anti-ASF1A or anti-RAD6
[2] = target: MDM2 (human (endogenous in HL-7702)) (UniProt Q00987); test: co-IP; two-step co-IP from HL-7702 cells transfected with Myc-RAD6A and Myc-RAD6B: first IP anti-Myc, elution with Myc peptide (250 mM NaCl), second IP anti-MDM2 or control IgG; blots with anti-Myc, anti-MDM2, anti-ASF1A

With “ASF1A (anti-silencing function 1A) (from UniProt Q9Y294 1-204)” the binding [1] was “binds” and the binding [2] was “binds”.
